This is one part of the list. Many values rest on one well or one pass, so single values are uncertain.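 Imaging used 1,536-well plates; nuclei positive for cleaved PARP by antibody were divided by total DNA-stained nuclei to yield the apoptosis fraction. Doses for screening kept most cells viable, and cell lines differ markedly in resting and induced cleaved-PARP levels.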
What was measured:
Assay in all cases: cleaved PARP positive nuclei fraction relative to DMSO control; melanoma cells; higher = more apoptosis
Details in all cases: library dose: low library concentration; 72 h
501Mel = tested on: 501Mel
A101D = tested on: A101D
A2058 = tested on: A2058
A375 = tested on: A375
C32 = tested on: C32
CBRC013 = tested on: CBRC013 (line from a melanoma biopsy)
CBRC014 = tested on: CBRC014 (line from a melanoma biopsy)
CBRC016 = tested on: CBRC016 (line from a melanoma biopsy)
CBRC017 = tested on: CBRC017 (line from a melanoma biopsy)
CBRC034 = tested on: CBRC034 (line from a melanoma biopsy)
COLO792 = tested on: COLO792
COLO800 = tested on: COLO800
COLO829 = tested on: COLO829
G361 = tested on: G361
IPC-298 = tested on: IPC-298
IST-MEL1 = tested on: IST-MEL1
LB2518-MEL = tested on: LB2518-MEL
LOXIMVI = tested on: LOXIMVI

Structure (SMILES)	cleaved PARP positive nuclei fraction (501Mel) [%]	cleaved PARP positive nuclei fraction (A101D) [%]	cleaved PARP positive nuclei fraction (A2058) [%]	cleaved PARP positive nuclei fraction (A375) [%]	cleaved PARP positive nuclei fraction (C32) [%]	cleaved PARP positive nuclei fraction (CBRC013) [%]	cleaved PARP positive nuclei fraction (CBRC014) [%]	cleaved PARP positive nuclei fraction (CBRC016) [%]	cleaved PARP positive nuclei fraction (CBRC017) [%]	cleaved PARP positive nuclei fraction (CBRC034) [%]	cleaved PARP positive nuclei fraction (COLO792) [%]	cleaved PARP positive nuclei fraction (COLO800) [%]	cleaved PARP positive nuclei fraction (COLO829) [%]	cleaved PARP positive nuclei fraction (G361) [%]	cleaved PARP positive nuclei fraction (IPC-298) [%]	cleaved PARP positive nuclei fraction (IST-MEL1) [%]	cleaved PARP positive nuclei fraction (LB2518-MEL) [%]	cleaved PARP positive nuclei fraction (LOXIMVI) [%]
C[C@@H]1CCN(C(=O)CC#N)C[C@@H]1N(C)c1ncnc2[nH]ccc12 + Cc1cc([N+](=O)[O-])ccc1NS(=O)(=O)c1cc(Cl)ccc1Cl [FH535] (first compound 1 µM, partner dose 1 µM)	75.3	351	85.6	140	44	276	295	3030	517	545	107	159	96.8	86.9	92.8	47.3	84.9	60.3
NC(=O)Nc1cc(-c2cccc(F)c2)sc1C(=O)N[C@H]1CCCNC1 + CC(C)CCN1c2nc(Nc3cc(F)c(O)c(F)c3)ncc2N(C)C(=O)C1C [BID1870] (first compound 0.02 µM, partner dose 0.2 µM)	81.2	67.5	133	223	319	57.2	86.1	160	91.8	47.3	162	193	53.3	39	34	84.4	74.2	28.5
COc1cc(Nc2ncc(F)c(Nc3ccc4c(n3)NC(=O)C(C)(C)O4)n2)cc(OC)c1OC [Tamatinib] + O=C1NC(=O)/C(=C/c2ccc(-c3ccc(F)cc3O)o2)S1 [AS252424] (first compound 0.4 µM, partner dose 1 µM)	217	191	107	105	124	76.5	96.9	87.7	77.4	193	256	97.2	129	113	277	251	493	288
C[C@@H]1CCN(C(=O)CC#N)C[C@@H]1N(C)c1ncnc2[nH]ccc12 + CCN(CC)CCCCNc1ncc2cc(-c3cc(OC)cc(OC)c3)c(NC(=O)NC(C)(C)C)nc2n1 [PD173074] (first compound 1 µM, partner dose 0.1 µM)	85.3	177	102	62.7	158	102	72.2	65.2	74.3	59.3	213	60.2	66.1	94.5	81.8	57.8	82.6	67.7
Cn1nnc2c(C(N)=O)ncn2c1=O [temozolomide] + CCc1ccc(CCOc2ccc(CC3SC(=O)NC3=O)cc2)nc1 [pioglitazone] (first compound 2 µM, partner dose 2 µM)	173	222	97.2	120	46.9	437	108	66.3	76.1	20.8	208	100	101	77.7	90.3	330	167	20.3
COc1cc(Nc2ncc(F)c(Nc3ccc4c(n3)NC(=O)C(C)(C)O4)n2)cc(OC)c1OC [Tamatinib] + CCc1ccc(CCOc2ccc(CC3SC(=O)NC3=O)cc2)nc1 [pioglitazone] (first compound 0.4 µM, partner dose 2 µM)	136	140	26.1	99.4	272	68.5	91.4	78.4	81.3	51.8	236	144	62.8	88.1	77.1	95.3	84.7	159
Nc1cccc2c1CN(C1CCC(=O)NC1=O)C2=O (configuration not stated) [lenalidomide] + O=C1NC(=O)/C(=C/c2ccc(-c3ccc(F)cc3O)o2)S1 [AS252424] (first compound 1 µM, partner dose 1 µM)	129	51.2	58.2	55.1	40.1	108	90.1	71.6	76.8	188	189	133	146	71.4	86.1	281	76.3	82.1
Cn1c(Nc2ccc(C(F)(F)F)cc2)nc2cc(Oc3ccnc(-c4ncc(C(F)(F)F)[nH]4)c3)ccc21 + COc1cc(N2CCC(N3CCN(C)CC3)CC2)ccc1Nc1ncc(Cl)c(Nc2ccccc2S(=O)(=O)C(C)C)n1 [NVP-TAE684] (first compound 0.08 µM, partner dose 0.08 µM)	113	184	151	184	35.5	1520	257	51.1	119	124	423	107	146	158	70.6	46.6	276	84.5
C[C@]1(c2nc3c(C(N)=O)cccc3[nH]2)CCCN1 [Veliparib] + O=C1NC(=O)/C(=C/c2ccc(-c3ccc(F)cc3O)o2)S1 [AS252424] (first compound 1.4 µM, partner dose 1 µM)	110	124	348	92.7	211	88.8	106	60.4	115	74.5	39.7	75	115	216	33.5	76.8	98	40.7

From the supplement of paper PMC4604168 (melanoma cell lines)
